Data reported in PubChem BioAssay AID328 (DTP/NCI, 2004).
The list is a part of this screen's results and no random one: it gathers tests that were run many times, whatever their T/C, doses with no T/C, and many T/C values between a quarter and a half above the control. Further doses and runs are listed elsewhere. T/C: endpoint of the treated group in % of that of the vehicle group. Some doses have a count of surviving animals in place of a T/C: the source holds a T/C of zero for them, seemingly a mark for toxic or unscored doses. Some survivor counts are full or nearly so, which does not show that the dose was tolerated: survival well below the control is almost never listed, so the zero probably covers shortened survival too. Survivors were counted at the toxicity check, usually on the fifth day, unless a day is given; later deaths do not show. Schedules are NCI's codes, taken here to give the interval after Q, in days (D) or hours (H), and the number of doses after X. Some entries hold several experiments; their values stand side by side, smallest first. Where survival is the endpoint, the PubChem record calls one and a half times the control and up active, and a quarter to a half above the control has no call in these data; cut-offs in other NCI protocols can differ. Brackets with × count equal records among those shown. Some T/C values are followed by the survivors on the day toxicity was checked, most often the fifth; where none is given, no animal had died by that day.

System: BDF1 mice, P388 leukemia ip, median survival T/C
Assay: NCI In Vivo Anticancer Drug Screen. Data for tumor model P388 Leukemia (intraperitoneal) in B6D2F1 (BDF1) mice
Conditions: T/C endpoint: median survival time, higher T/C = longer survival
Method in brief: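 Antitumour effect was judged in vivo: survival in drug-treated mice, normalised to that of vehicle-dosed controls, gives the reported T/C.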

[1] = dose: 3.13 mg/kg/injection, schedule: Q01DX009 (ip), vehicle: water
[2] = dose: 4.0 mg/kg/injection, schedule: Q01DX004 (ip), vehicle: saline

With `COc1cccc2c1C(=O)c1c(O)c3c(c(O)c1C2=O)C[C@@](O)(C(=O)CO)C[C@@H]3OC1CC(N)C(O)C(C)O1` (some centres not stated) the T/C (dose: 2.0 mg/kg/injection, schedule: Q01DX009 (ip), vehicle: water, evaluated on day 41) was 188 % of control, the T/C (dose: 2.0 mg/kg/injection, schedule: Q01DX009 (sc), vehicle: saline) was 130 % of control and the survivor count (dose: 2.0 mg/kg/injection, schedule: Q03HX016 (ip), vehicle: saline) was 10 of 10. For the same compound, the survivor count (dose: 2.0 mg/kg/injection, schedule: Q03HX024 (sc), vehicle: saline) was 9 of 10, the T/C (dose: 2.0 mg/kg/injection, schedule: Q04DX003 (ip), vehicle: water, evaluated on day 30) was 116 (2×), 118, 123, 128, 133, 137, 193 % of control and the T/C (dose: 2.0 mg/kg/injection, schedule: Q04DX003 (ip), vehicle: water, evaluated on day 32) was 144 % of control. The T/C (dose: 2.0 mg/kg/injection, schedule: Q04DX003 (ip), vehicle: water, evaluated on day 34) was 195 % of control, the T/C (dose: 2.0 mg/kg/injection, schedule: Q04DX003 (ip), vehicle: water, evaluated on day 38) was 192 % of control and the T/C (dose: 2.0 mg/kg/injection, schedule: Q04DX003 (ip), vehicle: water, evaluated on day 41) was 233 % of control. The T/C (dose: 2.0 mg/kg/injection, schedule: Q04DX003 (ip), vehicle: water, evaluated on day 46) was 212 % of control, the T/C (dose: 2.0 mg/kg/injection, schedule: Q04DX009 (ip), vehicle: water) was 126 % of control and the T/C (dose: 2.1 mg/kg/injection, schedule: Q01DX004 (ip), vehicle: saline) was 180, 191, 347, 396 % of control. For the same compound, the T/C (dose: 2.2 mg/kg/injection, schedule: Q04DX003 (iv), vehicle: saline) was 130 % of control, the T/C (dose: 2.4 mg/kg/injection, schedule: Q04DX003 (ip), vehicle: water) was 168, 190, 194, 201, 214, 224, 252 % of control and the survivor count (dose: 2.5 mg/kg/injection, schedule: Q03HX016 (ip), vehicle: saline) was 10 of 10. The survivor count (dose: 2.5 mg/kg/injection, schedule: Q03HX024 (sc), vehicle: saline) was 9 of 10, the T/C (dose: 2.6 mg/kg/injection, schedule: Q01DX004 (ip), vehicle: saline) was 205, 234, 505, 536 % of control and the T/C (dose: 2.88 mg/kg/injection, schedule: Q04DX003 (ip), vehicle: saline, evaluated on day 9) was 167 % of control. For the same compound, the T/C (dose: 2.88 mg/kg/injection, schedule: Q04DX003 (ip), vehicle: saline, evaluated on day 60) was 212, 223, 231, 241, 243, 247, 260, 268, 308 % of control, the survivor count (dose: 3.0 mg/kg/injection, schedule: Q01DX009 (ip), vehicle: saline) was 8 of 8 and the survivor count (dose: 3.0 mg/kg/injection, schedule: Q03HX016 (ip), vehicle: saline) was 10 of 10. The survivor count (dose: 3.0 mg/kg/injection, schedule: Q03HX024 (sc), vehicle: saline) was 7 of 10, the T/C (dose: 3.0 mg/kg/injection, schedule: Q04DX003 (ip), vehicle: saline) was 130 % of control and the T/C (dose: 3.0 mg/kg/injection, schedule: Q04DX003 (ip), vehicle: water, evaluated on day 7) was 160 and 166 % of control. For the same compound, the T/C (dose: 3.0 mg/kg/injection, schedule: Q04DX003 (ip), vehicle: water, evaluated on day 60) was 247 % of control, the T/C (dose: 3.0 mg/kg/injection, schedule: Q04DX003 (ip), vehicle: water, evaluated on day 62) was 160 and 166 % of control and the T/C [1] was 140 % of control. The survivor count [1] was 3 of 3, the T/C (dose: 3.2 mg/kg/injection, schedule: Q01DX004 (ip), vehicle: saline) was 117, 218, 243, 507 % of control and the T/C (dose: 3.3 mg/kg/injection, schedule: Q01DX001 (ip), vehicle: saline) was 147 % of control. For the same compound, the T/C (dose: 3.3 mg/kg/injection, schedule: Q04DX003 (ip), vehicle: saline, evaluated on day 5) was 96, 100, 104 (2×), 130, 136, 137, 157, 161, 162, 173, 175, 176, 200, 239, 250, 295, 303, 553 % of control, the T/C (dose: 3.3 mg/kg/injection, schedule: Q04DX003 (ip), vehicle: saline, evaluated on day 8) was 158 % of control and the T/C (dose: 3.3 mg/kg/injection, schedule: Q04DX003 (ip), vehicle: saline, evaluated on day 45) was 179 % of control. For the same compound, the T/C (dose: 3.3 mg/kg/injection, schedule: Q04DX003 (ip), vehicle: saline, evaluated on day 60) was 96, 100, 104 (2×), 130, 136, 137, 157, 161, 162, 175, 176, 200, 230, 239, 250, 295, 303, 553 % of control, the T/C (dose: 3.3 mg/kg/injection, schedule: Q04DX003 (iv), vehicle: saline) was 125 % of control and the T/C (dose: 4.0 mg/kg/injection, schedule: Q01DX001 (ip), vehicle: saline, evaluated on day 1) was 200 % of control. For the same compound, the T/C (dose: 4.0 mg/kg/injection, schedule: Q01DX001 (ip), vehicle: saline, evaluated on day 5) was 194, 198, 226, 243 % of control, the T/C (dose: 4.0 mg/kg/injection, schedule: Q01DX001 (ip), vehicle: saline, evaluated on day 6) was 200 % of control and the T/C (dose: 4.0 mg/kg/injection, schedule: Q01DX001 (ip), vehicle: saline, evaluated on day 8) was 169 % of control. For the same compound, the T/C (dose: 4.0 mg/kg/injection, schedule: Q01DX001 (ip), vehicle: saline, evaluated on day 11) was 97 % of control, the T/C (dose: 4.0 mg/kg/injection, schedule: Q01DX001 (ip), vehicle: saline, evaluated on day 90) was 198 % of control and the T/C [2] was 135 % of control. For the same compound, the survivor count [2] was 10 of 10, the T/C (dose: 4.0 mg/kg/injection, schedule: Q01DX009 (ip), vehicle: water, evaluated on day 28) was 120 % of control and the T/C (dose: 4.0 mg/kg/injection, schedule: Q01DX009 (ip), vehicle: water, evaluated on day 32) was 115 and 245 % of control. For the same compound, the T/C (dose: 4.0 mg/kg/injection, schedule: Q01DX009 (ip), vehicle: water, evaluated on day 33) was 90 % of control [5 of 6 alive], the survivor count (dose: 4.0 mg/kg/injection, schedule: Q01DX009 (ip), vehicle: water) was 6 of 6 and 8 of 8 and the survivor count (dose: 4.0 mg/kg/injection, schedule: Q03HX008 (ip), vehicle: saline) was 7 of 10. The survivor count (dose: 4.0 mg/kg/injection, schedule: Q03HX008 (ip), vehicle: water) was 7 of 8, the survivor count (dose: 4.0 mg/kg/injection, schedule: Q03HX008 (sc), vehicle: saline) was 8 of 10 and the T/C (dose: 4.0 mg/kg/injection, schedule: Q04DX003 (ip), vehicle: saline, evaluated on day 5) was 141 % of control. The T/C (dose: 4.0 mg/kg/injection, schedule: Q04DX003 (ip), vehicle: saline, evaluated on day 9) was 146 and 162 % of control.
